{"source": "PubChem BioAssay AID1259292 – Sanger Institute | 2017", "aim": "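Kinase partners giving synthetic lethality with three drugs in colorectal cancer cells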 (follow-up of hits)", "system": "human colorectal cancer RCM1 cells", "knock-down reagent": "single siRNA against human genes", "challenge": "anchor drugs BYL719 at 1 µM, cetuximab at 5 µg/ml or trametinib at 10 nM, or DMSO vehicle; exposure time not given", "measurement": "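Replicate-averaged viability as a fraction of non-targeting pool 2 wells, under DMSO, BYL719 1 µM, cetuximab 5 µg/ml or trametinib 10 nM (time unstated), plus a synergy score for each drug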", "scale": "synergy score with trametinib and synergy score with cetuximab and synergy score with BYL719: higher = stronger combined killing beyond expected (synthetic lethal)", "active means": "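a gene counts as synergistic when its synergy score is over 0.10 with at least one of the three drugs; otherwise no synergy with any drug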", "meaning of the calls": "active = synergy with at least one anchor drug; inactive = no synergy with any anchor drug", "note": "The whole screen tested 160 reagents; below is an unselected part. 64 of all reagents (40%) were called active. 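Four separate siRNAs per gene; a call can rest on any single drug, so look at each drug's score.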 Reagents against one gene are numbered here. Further read-outs or replicates are left out here. Not stated in the record: the amount of reagent, the time to read-out."}
{"gene symbol": "PINK1 (PTEN induced kinase 1)", "reagent": 1, "synergy score with trametinib": 0.0649, "synergy score with cetuximab": -0.0686, "synergy score with BYL719": -0.162, "Call": "inactive"}
{"gene symbol": "PINK1 (PTEN induced kinase 1)", "reagent": 2, "synergy score with trametinib": 0.372, "synergy score with cetuximab": 0.125, "synergy score with BYL719": 0.128, "Call": "active"}
{"gene symbol": "PINK1 (PTEN induced kinase 1)", "reagent": 3, "synergy score with trametinib": 0.122, "synergy score with cetuximab": 0.0238, "synergy score with BYL719": -0.00659, "Call": "active"}
{"gene symbol": "PINK1 (PTEN induced kinase 1)", "reagent": 4, "synergy score with trametinib": 0.125, "synergy score with cetuximab": 0.204, "synergy score with BYL719": -0.024, "Call": "active"}
{"gene symbol": "PIM1 (Pim-1 proto-oncogene, serine/threonine kinase)", "reagent": 1, "synergy score with trametinib": 0.169, "synergy score with cetuximab": -0.0724, "synergy score with BYL719": -0.0836, "Call": "active"}
{"gene symbol": "PIM1 (Pim-1 proto-oncogene, serine/threonine kinase)", "reagent": 2, "synergy score with trametinib": 0.0871, "synergy score with cetuximab": -0.069, "synergy score with BYL719": -0.18, "Call": "inactive"}
{"gene symbol": "PIM1 (Pim-1 proto-oncogene, serine/threonine kinase)", "reagent": 3, "synergy score with trametinib": -0.355, "synergy score with cetuximab": -0.0686, "synergy score with BYL719": -0.162, "Call": "inactive"}
{"gene symbol": "PIM1 (Pim-1 proto-oncogene, serine/threonine kinase)", "reagent": 4, "synergy score with trametinib": 0.105, "synergy score with cetuximab": -0.0686, "synergy score with BYL719": -0.089, "Call": "active"}
{"gene symbol": "GRK5 (G protein-coupled receptor kinase 5)", "reagent": 1, "synergy score with trametinib": -0.0191, "synergy score with cetuximab": -0.0625, "synergy score with BYL719": -0.162, "Call": "inactive"}
{"gene symbol": "GRK5 (G protein-coupled receptor kinase 5)", "reagent": 2, "synergy score with trametinib": -0.243, "synergy score with cetuximab": -0.0686, "synergy score with BYL719": -0.153, "Call": "inactive"}
{"gene symbol": "GRK5 (G protein-coupled receptor kinase 5)", "reagent": 3, "synergy score with trametinib": 0.0136, "synergy score with cetuximab": -0.0473, "synergy score with BYL719": -0.156, "Call": "inactive"}
{"gene symbol": "GRK5 (G protein-coupled receptor kinase 5)", "reagent": 4, "synergy score with trametinib": 0.0166, "synergy score with cetuximab": -0.0686, "synergy score with BYL719": -0.162, "Call": "inactive"}
{"gene symbol": "PLK1 (polo like kinase 1)", "reagent": 1, "synergy score with trametinib": 0.0864, "synergy score with cetuximab": 0.192, "synergy score with BYL719": 0.0743, "Call": "active"}
{"gene symbol": "PLK1 (polo like kinase 1)", "reagent": 2, "synergy score with trametinib": -0.00898, "synergy score with cetuximab": 0.199, "synergy score with BYL719": 0.0149, "Call": "active"}
{"gene symbol": "PLK1 (polo like kinase 1)", "reagent": 3, "synergy score with trametinib": -0.112, "synergy score with cetuximab": -0.0761, "synergy score with BYL719": -0.101, "Call": "inactive"}
{"gene symbol": "PLK1 (polo like kinase 1)", "reagent": 4, "synergy score with trametinib": -0.0556, "synergy score with cetuximab": -0.0238, "synergy score with BYL719": -0.111, "Call": "inactive"}
{"gene symbol": "CSNK2A2 (casein kinase 2 alpha 2)", "reagent": 1, "synergy score with trametinib": -0.0788, "synergy score with cetuximab": -0.144, "synergy score with BYL719": -0.248, "Call": "inactive"}
{"gene symbol": "CSNK2A2 (casein kinase 2 alpha 2)", "reagent": 2, "synergy score with trametinib": 0.0104, "synergy score with cetuximab": -0.0386, "synergy score with BYL719": -0.132, "Call": "inactive"}
{"gene symbol": "CSNK2A2 (casein kinase 2 alpha 2)", "reagent": 3, "synergy score with trametinib": -0.0759, "synergy score with cetuximab": -0.0888, "synergy score with BYL719": -0.209, "Call": "inactive"}
{"gene symbol": "CSNK2A2 (casein kinase 2 alpha 2)", "reagent": 4, "synergy score with trametinib": 0.0539, "synergy score with cetuximab": -0.0626, "synergy score with BYL719": -0.0474, "Call": "inactive"}

Laid out differently: results already given
PINK1 (PTEN induced kinase 1) #2
- synergy score with trametinib: 0.372
- synergy score with cetuximab: 0.125
- synergy score with BYL719: 0.128
- Call: active

PINK1 (PTEN induced kinase 1) #3
- synergy score with trametinib: 0.122
- synergy score with cetuximab: 0.0238
- synergy score with BYL719: -0.00659
- Call: active

PINK1 (PTEN induced kinase 1) #4
- synergy score with trametinib: 0.125
- synergy score with cetuximab: 0.204
- synergy score with BYL719: -0.024
- Call: active
